Results: the supplement of paper PMC10849652
This is one part of the list. Residues, ends and D or L forms follow the SMILES beside them. *: point of attachment. Cbz = O=C(OCc1ccccc1)*

Sequences of proteins named here, by UniProt entry; tags and fusion partners are left off. A change or cut given only in a name is not applied to a line headed by its entry.
UniProt Q99611, whole entry, looked up: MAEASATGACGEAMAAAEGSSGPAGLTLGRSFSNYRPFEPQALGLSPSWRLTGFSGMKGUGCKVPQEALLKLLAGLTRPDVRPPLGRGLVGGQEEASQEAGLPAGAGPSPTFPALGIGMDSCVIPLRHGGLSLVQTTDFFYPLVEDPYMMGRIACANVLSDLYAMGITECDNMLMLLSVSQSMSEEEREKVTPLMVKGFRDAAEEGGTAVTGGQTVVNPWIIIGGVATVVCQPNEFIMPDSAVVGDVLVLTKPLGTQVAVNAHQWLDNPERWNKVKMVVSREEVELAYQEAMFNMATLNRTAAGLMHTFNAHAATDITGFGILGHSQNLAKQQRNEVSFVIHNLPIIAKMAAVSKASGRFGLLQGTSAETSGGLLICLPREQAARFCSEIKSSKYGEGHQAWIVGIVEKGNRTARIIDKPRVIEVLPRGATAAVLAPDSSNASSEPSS
UniProt P50452: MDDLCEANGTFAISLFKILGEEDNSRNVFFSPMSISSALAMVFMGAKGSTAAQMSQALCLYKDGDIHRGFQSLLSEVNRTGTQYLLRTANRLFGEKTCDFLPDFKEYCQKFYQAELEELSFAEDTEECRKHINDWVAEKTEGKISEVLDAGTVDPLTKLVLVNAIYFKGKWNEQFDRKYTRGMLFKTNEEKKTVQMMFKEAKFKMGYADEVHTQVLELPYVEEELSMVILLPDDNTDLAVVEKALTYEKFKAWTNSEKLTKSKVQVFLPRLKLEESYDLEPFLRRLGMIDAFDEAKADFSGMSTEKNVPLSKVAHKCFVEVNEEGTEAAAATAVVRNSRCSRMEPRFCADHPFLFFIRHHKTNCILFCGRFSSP
UniProt Q9H299: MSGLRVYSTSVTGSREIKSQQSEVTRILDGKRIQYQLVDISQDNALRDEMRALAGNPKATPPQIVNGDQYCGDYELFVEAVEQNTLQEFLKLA
UniProt Q7L8J4: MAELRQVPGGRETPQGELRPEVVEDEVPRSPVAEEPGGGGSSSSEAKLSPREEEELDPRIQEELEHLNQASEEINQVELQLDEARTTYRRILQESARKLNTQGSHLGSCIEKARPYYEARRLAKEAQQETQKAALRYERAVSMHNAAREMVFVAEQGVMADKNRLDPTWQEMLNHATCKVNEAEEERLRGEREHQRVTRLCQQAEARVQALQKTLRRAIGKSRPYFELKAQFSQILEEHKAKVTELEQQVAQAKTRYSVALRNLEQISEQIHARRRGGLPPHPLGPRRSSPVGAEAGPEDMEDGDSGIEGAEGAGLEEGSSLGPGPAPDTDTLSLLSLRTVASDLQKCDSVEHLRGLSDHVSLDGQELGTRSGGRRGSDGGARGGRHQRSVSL
UniProt Q9UHD8: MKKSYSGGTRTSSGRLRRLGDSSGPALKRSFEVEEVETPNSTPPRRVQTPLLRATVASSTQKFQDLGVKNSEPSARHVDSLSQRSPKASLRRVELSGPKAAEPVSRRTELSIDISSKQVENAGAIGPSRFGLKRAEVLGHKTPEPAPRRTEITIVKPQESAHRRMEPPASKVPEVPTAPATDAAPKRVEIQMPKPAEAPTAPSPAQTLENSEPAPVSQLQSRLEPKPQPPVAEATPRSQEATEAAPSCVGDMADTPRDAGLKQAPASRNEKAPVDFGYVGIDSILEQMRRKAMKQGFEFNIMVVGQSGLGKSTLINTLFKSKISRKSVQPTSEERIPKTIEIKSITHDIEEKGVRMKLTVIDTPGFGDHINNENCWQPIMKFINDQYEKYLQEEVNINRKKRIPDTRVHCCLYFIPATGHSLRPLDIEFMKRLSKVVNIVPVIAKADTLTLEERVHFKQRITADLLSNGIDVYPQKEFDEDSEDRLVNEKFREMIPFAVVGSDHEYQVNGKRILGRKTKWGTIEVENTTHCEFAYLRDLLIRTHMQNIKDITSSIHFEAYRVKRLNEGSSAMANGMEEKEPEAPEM
UniProt Q9HAT2: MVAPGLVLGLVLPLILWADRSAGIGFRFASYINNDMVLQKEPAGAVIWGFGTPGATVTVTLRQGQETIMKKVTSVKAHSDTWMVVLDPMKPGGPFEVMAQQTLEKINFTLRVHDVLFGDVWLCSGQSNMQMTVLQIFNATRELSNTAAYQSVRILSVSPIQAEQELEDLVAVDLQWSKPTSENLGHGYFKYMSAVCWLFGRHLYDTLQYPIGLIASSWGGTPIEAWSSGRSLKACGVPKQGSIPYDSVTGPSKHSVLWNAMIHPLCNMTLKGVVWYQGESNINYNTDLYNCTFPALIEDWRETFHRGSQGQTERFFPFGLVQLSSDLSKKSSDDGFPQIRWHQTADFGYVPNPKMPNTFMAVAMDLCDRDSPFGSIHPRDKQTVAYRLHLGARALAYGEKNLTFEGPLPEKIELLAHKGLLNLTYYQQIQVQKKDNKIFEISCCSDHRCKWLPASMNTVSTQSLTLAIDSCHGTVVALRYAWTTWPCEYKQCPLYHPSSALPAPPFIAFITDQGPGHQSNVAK
UniProt Q9Y371: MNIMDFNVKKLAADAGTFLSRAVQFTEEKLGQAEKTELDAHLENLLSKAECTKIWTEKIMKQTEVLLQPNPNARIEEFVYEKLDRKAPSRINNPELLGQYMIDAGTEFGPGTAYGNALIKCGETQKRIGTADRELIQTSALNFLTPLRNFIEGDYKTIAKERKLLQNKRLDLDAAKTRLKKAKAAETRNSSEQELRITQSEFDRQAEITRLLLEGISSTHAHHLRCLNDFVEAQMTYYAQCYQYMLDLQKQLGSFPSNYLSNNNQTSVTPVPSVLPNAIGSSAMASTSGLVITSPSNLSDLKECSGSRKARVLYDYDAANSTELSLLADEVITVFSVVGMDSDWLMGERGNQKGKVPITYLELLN
UniProt Q9H9B4: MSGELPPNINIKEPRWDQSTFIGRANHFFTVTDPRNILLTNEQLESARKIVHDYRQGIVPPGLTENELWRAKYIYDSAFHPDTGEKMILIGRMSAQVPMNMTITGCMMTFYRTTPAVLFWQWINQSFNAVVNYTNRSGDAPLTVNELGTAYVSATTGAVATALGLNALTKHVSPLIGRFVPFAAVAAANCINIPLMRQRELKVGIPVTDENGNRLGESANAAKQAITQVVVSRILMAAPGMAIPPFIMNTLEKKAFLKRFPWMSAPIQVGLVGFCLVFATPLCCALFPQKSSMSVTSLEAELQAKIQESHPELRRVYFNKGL
UniProt P23246: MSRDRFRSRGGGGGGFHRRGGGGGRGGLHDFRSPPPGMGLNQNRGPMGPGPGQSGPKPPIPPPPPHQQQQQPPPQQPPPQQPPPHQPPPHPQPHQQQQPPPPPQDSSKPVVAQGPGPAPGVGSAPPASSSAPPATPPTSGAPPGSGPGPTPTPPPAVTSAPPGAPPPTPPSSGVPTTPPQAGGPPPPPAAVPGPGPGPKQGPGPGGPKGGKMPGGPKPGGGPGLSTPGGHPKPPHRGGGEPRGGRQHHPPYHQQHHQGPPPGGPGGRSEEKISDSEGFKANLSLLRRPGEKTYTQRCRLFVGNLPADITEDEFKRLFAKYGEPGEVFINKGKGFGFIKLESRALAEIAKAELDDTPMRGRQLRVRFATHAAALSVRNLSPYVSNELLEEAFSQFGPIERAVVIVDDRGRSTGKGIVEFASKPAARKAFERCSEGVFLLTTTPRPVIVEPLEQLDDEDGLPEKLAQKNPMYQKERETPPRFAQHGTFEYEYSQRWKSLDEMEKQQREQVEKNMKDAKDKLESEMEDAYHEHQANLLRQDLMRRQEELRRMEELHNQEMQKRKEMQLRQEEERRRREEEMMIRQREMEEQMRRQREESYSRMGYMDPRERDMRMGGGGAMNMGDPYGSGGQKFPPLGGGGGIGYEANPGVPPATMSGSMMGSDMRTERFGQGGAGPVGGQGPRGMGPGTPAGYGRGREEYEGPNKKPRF
UniProt Q9C0C4, whole entry, looked up: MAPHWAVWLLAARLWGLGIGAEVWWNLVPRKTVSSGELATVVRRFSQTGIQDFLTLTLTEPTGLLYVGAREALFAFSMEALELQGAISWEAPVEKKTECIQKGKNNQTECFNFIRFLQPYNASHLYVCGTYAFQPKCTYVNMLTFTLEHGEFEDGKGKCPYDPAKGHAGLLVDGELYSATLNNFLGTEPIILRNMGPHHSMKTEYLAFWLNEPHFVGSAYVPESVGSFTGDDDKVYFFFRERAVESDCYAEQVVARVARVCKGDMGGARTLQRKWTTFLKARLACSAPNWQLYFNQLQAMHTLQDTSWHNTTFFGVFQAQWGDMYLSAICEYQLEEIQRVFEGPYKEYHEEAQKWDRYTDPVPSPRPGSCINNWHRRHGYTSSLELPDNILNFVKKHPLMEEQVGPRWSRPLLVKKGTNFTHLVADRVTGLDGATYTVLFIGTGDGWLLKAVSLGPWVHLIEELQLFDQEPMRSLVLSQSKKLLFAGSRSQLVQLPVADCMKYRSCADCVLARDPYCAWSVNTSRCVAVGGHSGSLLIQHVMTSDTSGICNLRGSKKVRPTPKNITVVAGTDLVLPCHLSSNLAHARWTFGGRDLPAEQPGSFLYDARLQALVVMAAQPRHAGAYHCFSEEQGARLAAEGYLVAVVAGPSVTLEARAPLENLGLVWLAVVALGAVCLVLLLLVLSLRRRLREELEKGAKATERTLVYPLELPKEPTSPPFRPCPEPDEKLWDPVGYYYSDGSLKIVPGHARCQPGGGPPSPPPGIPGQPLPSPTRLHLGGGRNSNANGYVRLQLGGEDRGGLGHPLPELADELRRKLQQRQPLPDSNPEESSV
UniProt Q99720, whole entry, looked up: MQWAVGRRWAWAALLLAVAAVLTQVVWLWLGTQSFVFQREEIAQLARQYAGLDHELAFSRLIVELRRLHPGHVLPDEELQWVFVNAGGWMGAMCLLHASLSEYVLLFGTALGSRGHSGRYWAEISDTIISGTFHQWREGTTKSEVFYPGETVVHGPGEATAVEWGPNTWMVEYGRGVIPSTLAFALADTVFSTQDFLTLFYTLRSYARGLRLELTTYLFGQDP
UniProt Q9Y3B4: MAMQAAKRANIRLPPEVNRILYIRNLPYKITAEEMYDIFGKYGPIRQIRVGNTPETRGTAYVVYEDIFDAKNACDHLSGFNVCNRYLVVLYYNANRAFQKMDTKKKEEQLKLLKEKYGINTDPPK
UniProt P34897: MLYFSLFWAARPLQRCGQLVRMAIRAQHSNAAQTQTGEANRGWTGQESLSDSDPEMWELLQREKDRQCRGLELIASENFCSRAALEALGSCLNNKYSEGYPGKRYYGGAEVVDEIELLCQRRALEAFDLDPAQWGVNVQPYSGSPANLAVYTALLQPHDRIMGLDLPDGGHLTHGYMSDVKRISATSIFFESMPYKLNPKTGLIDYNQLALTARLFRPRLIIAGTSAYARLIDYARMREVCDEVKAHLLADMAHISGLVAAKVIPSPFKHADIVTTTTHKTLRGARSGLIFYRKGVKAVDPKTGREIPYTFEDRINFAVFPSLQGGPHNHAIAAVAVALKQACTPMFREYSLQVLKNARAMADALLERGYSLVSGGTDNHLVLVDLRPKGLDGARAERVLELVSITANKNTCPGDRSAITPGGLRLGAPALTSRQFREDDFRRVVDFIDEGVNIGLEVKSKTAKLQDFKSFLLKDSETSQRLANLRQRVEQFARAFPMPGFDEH
UniProt Q96NB2: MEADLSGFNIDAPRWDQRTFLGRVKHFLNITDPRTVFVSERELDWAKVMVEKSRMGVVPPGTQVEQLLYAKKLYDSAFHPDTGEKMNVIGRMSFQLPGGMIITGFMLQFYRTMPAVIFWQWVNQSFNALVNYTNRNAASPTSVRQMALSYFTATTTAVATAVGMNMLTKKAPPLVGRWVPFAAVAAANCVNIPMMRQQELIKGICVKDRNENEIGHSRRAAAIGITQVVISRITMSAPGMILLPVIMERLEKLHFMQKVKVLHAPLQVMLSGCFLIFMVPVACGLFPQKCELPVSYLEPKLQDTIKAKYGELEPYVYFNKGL
UniProt Q8N6T7, whole entry, looked up: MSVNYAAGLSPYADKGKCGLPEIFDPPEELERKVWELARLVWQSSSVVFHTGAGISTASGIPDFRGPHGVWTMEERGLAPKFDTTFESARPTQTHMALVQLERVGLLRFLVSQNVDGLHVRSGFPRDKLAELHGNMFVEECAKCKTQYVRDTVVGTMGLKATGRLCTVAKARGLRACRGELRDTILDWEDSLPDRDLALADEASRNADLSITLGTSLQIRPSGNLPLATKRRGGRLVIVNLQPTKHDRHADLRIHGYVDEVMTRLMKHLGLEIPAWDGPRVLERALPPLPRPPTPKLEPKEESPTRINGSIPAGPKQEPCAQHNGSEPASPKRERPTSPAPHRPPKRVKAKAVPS
UniProt P31947: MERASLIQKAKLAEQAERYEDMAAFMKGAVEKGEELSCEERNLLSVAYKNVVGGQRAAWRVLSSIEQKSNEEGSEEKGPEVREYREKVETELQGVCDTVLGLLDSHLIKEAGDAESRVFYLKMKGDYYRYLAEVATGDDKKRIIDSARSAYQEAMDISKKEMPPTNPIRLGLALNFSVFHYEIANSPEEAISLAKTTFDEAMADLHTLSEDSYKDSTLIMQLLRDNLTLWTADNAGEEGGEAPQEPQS

What was measured:
Experiment in all cases: log2 fold change, soluble protein after heating vs DMSO (PISA); higher = thermal stabilisation; K562 cells, 10 uM, 30 min; active = over 0.2 and 3.5 SD of the protein, either way, in both replicates (recomputed)
IRAK-1-4 Inhibitor I = compound: C1COCCN1CCN2C3=CC=CC=C3N=C2NC(=O)C4=CC(=CC=C4)[N+](=O)[O-] [IRAK-1-4 Inhibitor I]
Procedure, shortened: (§1)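 K562 cells at 2×10^6 cells/mL were exposed to 10 μM compound for 30 min, then aliquots were heated for 3 min across 48°C-58°C, pooled, and extracted in PBS containing 0.5% NP-40 at 4°C. The supernatant after 21,000xg for 90 min was taken as soluble protein and measured by TMTpro 16plex LC-MS/MS with channel sums equalised. Thermal stability is reported relative to control samples, with values from duplicates. Fold changes are given on a log2 scale.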

ibrutinib = compound: C=CC(=O)N1CCC[C@@H](n2nc(-c3ccc(Oc4ccccc4)cc3)c3c(N)ncnc32)C1 [ibrutinib]
Procedure, shortened: as §1

[1] = compound: CC(=O)c1cnc2ccc(-c3cc(Cl)c(O)c(Cl)c3)nc2c1N[C@H]1CC[C@H](CN(C)C)CC1
Procedure, shortened: as §1

ralimetinib = compound: CC(C)(C)Cn1c(N)nc2ccc(-c3[nH]c(C(C)(C)C)nc3-c3ccc(F)cc3)nc21 [ralimetinib]
Procedure, shortened: as §1

[2] = compound: CC(C)(O)CC(=O)NCCn1ccc2ncnc(Nc3ccc(Oc4cccc(C(F)(F)F)c4)c(Cl)c3)c21
Procedure, shortened: as §1

[3] = compound: CC(C)C1=C2N=C(C=C(N2N=C1)NCC3=CC=CC=C3)NCCCCCCN
Procedure, shortened: as §1

[4] = compound: CC(C)C[C@@H](C=O)NC(=O)[C@H](CC(C)C)NC(=O)[C@H](CC(C)C)NC(=O)OCc1ccccc1
Procedure, shortened: as §1

pinometostat = compound: CC(C)N(C[C@H]1O[C@@H](n2cnc3c(N)ncnc32)[C@H](O)[C@@H]1O)[C@H]1C[C@@H](CCc2nc3cc(C(C)(C)C)ccc3[nH]2)C1 [pinometostat]
Procedure, shortened: as §1

[5] = compound: CC1=C(C(CC(=O)N1)C2=CC=C(C=C2)C(F)(F)F)C(=O)NC3=C(C=C4C(=C3)C=NN4)F
Procedure, shortened: as §1

[6] = compound: CC1=C(C2=C(C=C1)C(=O)C3=CC=CC=C3N2CCCN)C
Procedure, shortened: as §1

Measured: log2 fold change

SEPHS2 (UniProt Q99611)
inactive: IRAK-1-4 Inhibitor I 0.016 | ibrutinib 0.003 | [1] -0.054 | ralimetinib 0.03 | [2] -0.012 | [3] 0.055 | [4] -0.054 | pinometostat -0.016 | [5] 0.02 | [6] -0.01

SERPINB8 (UniProt P50452)
inactive: IRAK-1-4 Inhibitor I 0.057 | ibrutinib 0.014 | [1] 0.038 | ralimetinib -0.098 | [2] -0.023 | [3] 0.042 | [4] -0.041 | pinometostat -0.058 | [5] 0.023 | [6] -0.139

SH3BGRL3 (UniProt Q9H299)
inactive: IRAK-1-4 Inhibitor I 0.05 | ibrutinib -0.006 | [1] 0.006 | ralimetinib 0.043 | [2] -0.006 | [3] 0.028 | [4] 0.041 | pinometostat 0.002 | [5] -0.019 | [6] 0.058

SF1 isoform 6 (UniProt Q15637)
inactive: IRAK-1-4 Inhibitor I -0.023 | ibrutinib 0.063 | [1] 0.032 | ralimetinib 0.031 | [2] 0.086 | [3] 0.001 | [4] 0.021 | pinometostat 0.043 | [5] 0.012 | [6] 0.067

SH3BP5L (UniProt Q7L8J4)
inactive: IRAK-1-4 Inhibitor I -0.041 | ibrutinib -0.052 | [1] -0.004 | ralimetinib -0.05 | [2] 0.037 | [3] -0.085 | [4] -0.043 | pinometostat -0.015 | [5] -0.02 | [6] 0.049

SEPTIN9 (UniProt Q9UHD8)
inactive: IRAK-1-4 Inhibitor I 0.024 | ibrutinib -0.008 | [1] -0.045 | ralimetinib -0.046 | [2] -0.02 | [3] 0.022 | [4] -0.012 | pinometostat 0.011 | [5] 0.013 | [6] 0.044

SEPTIN4 isoform 4 (UniProt O43236)
inactive: IRAK-1-4 Inhibitor I -0.114 | ibrutinib -0.064 | [1] 0.045 | ralimetinib 0.114 | [2] -0.162 | [3] 0.058 | [4] -0.165 | pinometostat -0.185 | [5] 0.006 | [6] 0.117

SIAE (UniProt Q9HAT2)
inactive: IRAK-1-4 Inhibitor I -0.012 | ibrutinib -0.075 | [1] -0.024 | ralimetinib -0.282 | [2] -0.174 | [3] 0.007 | [4] 0.1 | pinometostat -0.077 | [5] 0.086 | [6] 0.013

SIRT1 (UniProt Q96EB6)
inactive: IRAK-1-4 Inhibitor I 0.029 | ibrutinib -0.018 | [1] -0.024 | ralimetinib 0.013 | [2] -0.008 | [3] -0.053 | [4] 0.029 | pinometostat -0.044 | [5] 0.015 | [6] -0.096

SH3GLB1 isoform 2 (UniProt Q9Y371)
inactive: IRAK-1-4 Inhibitor I -0.057 | ibrutinib -0.003 | [1] -0.103 | ralimetinib 0.009 | [2] -0.059 | [3] -0.167 | [4] 0.083 | pinometostat 0.09 | [5] 0.023 | [6] -0.111

SGTB (UniProt Q96EQ0)
inactive: IRAK-1-4 Inhibitor I 0.052 | ibrutinib 0.014 | [1] -0.017 | ralimetinib -0.051 | [2] 0.029 | [3] -0.002 | [4] -0.014 | pinometostat -0.015 | [5] -0.02 | [6] 0.013

SFXN1 (UniProt Q9H9B4)
inactive: IRAK-1-4 Inhibitor I 0.036 | ibrutinib 0.033 | [1] -0.003 | ralimetinib 0.021 | [2] -0.111 | [3] -0.12 | [4] -0.068 | pinometostat -0.099 | [5] -0.003 | [6] 0.056

SFPQ (UniProt P23246)
inactive: IRAK-1-4 Inhibitor I -0.107 | ibrutinib 0.031 | [1] -0.001 | ralimetinib 0.108 | [2] 0.038 | [3] -0.08 | [4] 0.083 | pinometostat 0.115 | [5] -0.012 | [6] 0.065

SEPSECS (UniProt Q9HD40)
inactive: IRAK-1-4 Inhibitor I 0.06 | ibrutinib -0.028 | [1] -0.047 | ralimetinib -0.02 | [2] 0.067 | [3] 0.072 | [4] -0.025 | pinometostat -0.017 | [5] -0.042 | [6] -0.022

SGTA (UniProt O43765)
inactive: IRAK-1-4 Inhibitor I 0.013 | ibrutinib -0.007 | [1] 0.023 | ralimetinib 0.005 | [2] 0.002 | [3] -0.015 | [4] 0.002 | pinometostat -0.038 | [5] 0.022 | [6] 0.025

SEMA4C (UniProt Q9C0C4)
inactive: IRAK-1-4 Inhibitor I 0.037 | ibrutinib 0.006 | [1] -0.089 | ralimetinib 0.025 | [2] -0.012 | [3] -0.001 | [4] 0.077 | pinometostat 0.038 | [5] 0.047 | [6] -0.021

SIGMAR1 (UniProt Q99720)
inactive: IRAK-1-4 Inhibitor I 0.019 | ibrutinib -0.004 | [1] -0.038 | ralimetinib -0.057 | [2] 0.024 | [3] 0.122 | [4] 0.022 | pinometostat -0.045 | [5] -0.021 | [6] -0.004

SF3B6 (UniProt Q9Y3B4)
inactive: IRAK-1-4 Inhibitor I -0.061 | ibrutinib 0.122 | [1] -0.065 | ralimetinib 0 | [2] 0.08 | [3] -0.204 | [4] 0.061 | pinometostat 0.162 | [5] -0.046 | [6] -0.144

SIPA1 (UniProt Q96FS4)
inactive: IRAK-1-4 Inhibitor I -0.041 | ibrutinib -0.024 | [1] -0.097 | ralimetinib 0.042 | [2] -0.015 | [3] 0.083 | [4] 0.047 | pinometostat -0.007 | [5] 0.067 | [6] 0.031

SHMT2 (UniProt P34897)
inactive: IRAK-1-4 Inhibitor I 0.024 | ibrutinib 0.012 | [1] 0.006 | ralimetinib -0.051 | [2] 0.008 | [3] 0.026 | [4] -0.021 | pinometostat -0.037 | [5] -0.005 | [6] -0.002

Pulled one by one from the entries so far (2):
SHMT2 (UniProt P34897)
inactive: IRAK-1-4 Inhibitor I 0.024 | ibrutinib 0.012 | [1] 0.006 | ralimetinib -0.051 | [2] 0.008 | [3] 0.026 | [4] -0.021 | pinometostat -0.037 | [5] -0.005 | [6] -0.002

SEMA4C (UniProt Q9C0C4)
inactive: IRAK-1-4 Inhibitor I 0.037 | ibrutinib 0.006 | [1] -0.089 | ralimetinib 0.025 | [2] -0.012 | [3] -0.001 | [4] 0.077 | pinometostat 0.038 | [5] 0.047 | [6] -0.021

Continued.

SFXN4 (UniProt Q6P4A7)
inactive: IRAK-1-4 Inhibitor I 0.012 | ibrutinib -0.02 | [1] -0.015 | ralimetinib -0.057 | [2] 0.038 | [3] -0.014 | [4] 0.037 | pinometostat -0.018 | [5] 0.02 | [6] 0.042

SIKE1 (UniProt Q9BRV8)
inactive: IRAK-1-4 Inhibitor I -0.033 | ibrutinib 0.017 | [1] 0.044 | ralimetinib 0.005 | [2] 0.005 | [3] 0.034 | [4] 0.081 | pinometostat 0.028 | [5] 0.067 | [6] -0.005

SEPTIN6 (UniProt Q14141)
inactive: IRAK-1-4 Inhibitor I 0.047 | ibrutinib 0.02 | [1] -0.031 | ralimetinib -0.082 | [2] 0.041 | [3] 0.052 | [4] 0.014 | pinometostat -0.018 | [5] 0.014 | [6] 0.024

SFXN2 (UniProt Q96NB2)
inactive: IRAK-1-4 Inhibitor I 0.043 | ibrutinib 0.031 | [1] -0.012 | ralimetinib -0.002 | [2] -0.039 | [3] -0.042 | [4] 0.053 | pinometostat -0.041 | [5] -0.005 | [6] 0.115

SIRT6 (UniProt Q8N6T7)
inactive: IRAK-1-4 Inhibitor I -0.053 | ibrutinib 0.019 | [1] -0.153 | ralimetinib 0.058 | [2] 0.096 | [3] 0.015 | [4] 0.088 | pinometostat -0.045 | [5] 0.075 | [6] 0.234

SFN (UniProt P31947)
inactive: IRAK-1-4 Inhibitor I 0.067 | ibrutinib -0.037 | [1] -0.008 | ralimetinib -0.077 | [2] -0.015 | [3] 0.033 | [4] -0.027 | pinometostat -0.049 | [5] 0.003 | [6] 0.011

SERPINF1 (UniProt P36955)
inactive: IRAK-1-4 Inhibitor I 0.003 | ibrutinib 0.212 | [1] 0.052 | ralimetinib 0.022 | [2] 0.122 | [3] 0.229 | [4] -0.051 | pinometostat -0.02 | [5] 0.003 | [6] -0.131

SF3B4 (UniProt Q15427)
inactive: IRAK-1-4 Inhibitor I -0.016 | ibrutinib -0.049 | [1] -0.083 | ralimetinib 0.074 | [2] 0.062 | [3] 0.092 | [4] 0.014 | pinometostat 0.098 | [5] -0.009 | [6] 0.011

SEL1L3 (UniProt Q68CR1)
inactive: IRAK-1-4 Inhibitor I 0.017 | ibrutinib 0.013 | [1] -0.034 | ralimetinib -0.003 | [2] -0.006 | [3] -0.166 | [4] 0.035 | pinometostat 0.064 | [5] -0.059 | [6] -0.098
